Test results taken from patent US20230414796A1, “COMBINATION OF PARA-AMINOHIPPURIC ACID (PAH) AND RADIOLABELED COMPLEXES FOR TREATING CANCER” (priority 2020, published 2023).
At least one peptide structure holds a part that was inferred or is arguable (an end, a ring closure or a residue).

Tests used:
AR42J xenograft tumor [1] = assay: Example 1: tumor growth and survival in AR42J pancreatic tumor-bearing nude mouse model; format: in vivo, CD1 nude mice; conditions: for Tumor volume (mean ± SD): Example 1, CD1 nude mice
AR42J xenograft tumor [2] = assay: Example 2: tumor growth and survival in AR42J pancreatic tumor-bearing nude mouse model; format: in vivo, SWISS nude mice; conditions: for Tumor volume (mean ± SD): Example 2, SWISS nude mice
[3] = Example 1, FIG. 2, 40 MBq single i.v.
[4] = Example 2, FIG. 6, 41-42 MBq single i.v.

Structure (SMILES): C[C@@H](O)[C@@H]1NC(=O)[C@H](CCCCN)NC(=O)[C@@H](Cc2c[nH]c3ccccc23)NC(=O)[C@H](Cc2ccc(O)cc2)NC(=O)[C@@H](NC(=O)[C@@H](Cc2ccccc2)NC(=O)CN2CCN(CC(=O)O)CCN(CC(=O)O)CCN(CC(=O)O)CC2)CSSC[C@@H](C(=O)N[C@H](CO)[C@@H](C)O)NC1=O [^177Lu-DOTATOC, ^177Lu-DOTA-D-Phe-cyclo(Cys-Tyr-D-Trp-Lys-Thr-Cys]-Thr(ol), metal not drawn]
- Tumor volume (mean ± SD) (AR42J xenograft tumor [1]; 0 days post-dosing): 0 ± 0 mm^3
- Tumor volume (mean ± SD) (AR42J xenograft tumor [1]; 1 day post-dosing): 0 ± 0 mm^3
- Tumor volume (mean ± SD) (AR42J xenograft tumor [1]; 4 days post-dosing): 0 ± 0 mm^3
- Tumor volume (mean ± SD) (AR42J xenograft tumor [1]; 6 days post-dosing): 0 ± 0 mm^3
- Tumor volume (mean ± SD) (AR42J xenograft tumor [1]; 8 days post-dosing): 0 ± 0 mm^3
- Tumor volume (mean ± SD) (AR42J xenograft tumor [1]; 11 days post-dosing): 0 ± 0 mm^3
- Tumor volume (mean ± SD) (AR42J xenograft tumor [1]; 13 days post-dosing): 0 ± 0 mm^3
- Tumor volume (mean ± SD) (AR42J xenograft tumor [1]; 15 days post-dosing): 0 ± 0 mm^3
- Tumor volume (mean ± SD) (AR42J xenograft tumor [1]; 18 days post-dosing): 2 ± 6 mm^3
- Tumor volume (mean ± SD) (AR42J xenograft tumor [1]; 20 days post-dosing): 10 ± 22 mm^3
- Tumor volume (mean ± SD) (AR42J xenograft tumor [1]; 22 days post-dosing): 33 ± 47 mm^3
- Tumor volume (mean ± SD) (AR42J xenograft tumor [1]; 25 days post-dosing): 122 ± 120 mm^3
- Tumor volume (mean ± SD) (AR42J xenograft tumor [1]; 27 days post-dosing): 175 ± 182 mm^3
- Tumor volume (mean ± SD) (AR42J xenograft tumor [1]; 29 days post-dosing): 251 ± 233 mm^3
- Tumor volume (mean ± SD) (AR42J xenograft tumor [1]; 32 days post-dosing): 516 ± 347 mm^3
- Tumor volume (mean ± SD) (AR42J xenograft tumor [1]; 34 days post-dosing): 709 ± 466 mm^3
- Tumor volume (mean ± SD) (AR42J xenograft tumor [1]; 36 days post-dosing): 786 ± 338 mm^3
- Tumor volume (mean ± SD) (AR42J xenograft tumor [1]; 39 days post-dosing): 1192 ± 486 mm^3
- Tumor volume (mean ± SD) (AR42J xenograft tumor [1]; 41 days post-dosing): 1265 ± 199 mm^3
- time for which tumor growth was suppressed (AR42J xenograft tumor [1]; [3]): 20 days
- tumor growth delay compared to the control group (AR42J xenograft tumor [1]; [3]): 10 days
- median survival time (MST) to reach the maximum tumor size of 1500 mm^3 (AR42J xenograft tumor [1]; Example 1, FIG. 5): 39 days
- Tumor volume (mean ± SD) (AR42J xenograft tumor [2]; 1 day post-dosing): 0 ± 0 mm^3
- Tumor volume (mean ± SD) (AR42J xenograft tumor [2]; 4 days post-dosing): 0 ± 0 mm^3
- Tumor volume (mean ± SD) (AR42J xenograft tumor [2]; 6 days post-dosing): 0 ± 0 mm^3
- Tumor volume (mean ± SD) (AR42J xenograft tumor [2]; 8 days post-dosing): 0 ± 0 mm^3
- Tumor volume (mean ± SD) (AR42J xenograft tumor [2]; 11 days post-dosing): 0 ± 0 mm^3
- Tumor volume (mean ± SD) (AR42J xenograft tumor [2]; 13 days post-dosing): 0 ± 0 mm^3
- Tumor volume (mean ± SD) (AR42J xenograft tumor [2]; 15 days post-dosing): 0 ± 0 mm^3
- Tumor volume (mean ± SD) (AR42J xenograft tumor [2]; 18 days post-dosing): 29 ± 37 mm^3
- Tumor volume (mean ± SD) (AR42J xenograft tumor [2]; 20 days post-dosing): 59 ± 48 mm^3
- Tumor volume (mean ± SD) (AR42J xenograft tumor [2]; 22 days post-dosing): 147 ± 130 mm^3
- Tumor volume (mean ± SD) (AR42J xenograft tumor [2]; 25 days post-dosing): 410 ± 255 mm^3
- Tumor volume (mean ± SD) (AR42J xenograft tumor [2]; 27 days post-dosing): 674 ± 362 mm^3
- Tumor volume (mean ± SD) (AR42J xenograft tumor [2]; 29 days post-dosing): 1033 ± 461 mm^3
- Tumor volume (mean ± SD) (AR42J xenograft tumor [2]; 32 days post-dosing): 1285 ± 458 mm^3
- Tumor volume (mean ± SD) (AR42J xenograft tumor [2]; 34 days post-dosing): 1396 ± 408 mm^3
- Tumor volume (mean ± SD) (AR42J xenograft tumor [2]; 36 days post-dosing): 1425 ± 419 mm^3
- Tumor volume (mean ± SD) (AR42J xenograft tumor [2]; 39 days post-dosing): 1567 mm^3
- time for which tumor growth was suppressed (AR42J xenograft tumor [2]; [4]): 15 days
- tumor growth delay compared to the control group (AR42J xenograft tumor [2]; [4]): about 14 days
